Where a name gives a salt, the structure may show the parent alone. ± gives the standard deviation of the averaged measurements. The list shows a part of the results. Many values rest on one well or one pass, so single values are uncertain.
What follows are compounds tested on Reh (assay: S-phase gammaH2AX median, Z-score vs plate median (drug alone); higher = more S-phase DNA damage). Conditions: MK1775 concentration 0 nM; 10 µM; 4 h.

SMILES | S-phase gammaH2AX median (Z-score)
CNC(=O)[C@H]1O[C@@H](n2cnc3c(NCc4ccc(N)cc4)ncnc32)[C@H](O)[C@@H]1O | -0.0718
COc1cc2c(cc1O)CC[C@@H]1[C@@H]2CC[C@]2(C)[C@@H](O)CC[C@@H]12 [2-methoxyestradiol] | 0.18
COc1cc2c(cc1O)CC[C@@H]1[C@@H]2CC[C@]2(C)[C@@H](O)CC[C@@H]12 [2-Methoxyestradiol] | 0.115
COC(=O)C1=C(C)NC(C)=C(C(=O)OC)C1c1ccccc1[N+](=O)[O-] [Nifedipine] | 0.161
CN(C)CCCN1c2ccccc2CCc2ccc(Cl)cc21 [Clomipramine hydrochloride] | 0.00388
NC(=O)c1ccc2nc(-c3ccc(Oc4ccc(Cl)cc4)cc3)[nH]c2c1 | 0.00348
CC(C)[C@H](C(=O)Nc1ccc(C(=O)NO)cc1)c1ccccc1 | 0.122
COc1cc2c(CCNC(C)=O)c[nH]c2cc1O [6-Hydroxymelatonin] | 0.148
COc1ccc(CCN(C)CCc2ccc(OC)c(OC)c2)cc1OC [YS-035 hydrochloride] | 0.113
CC[N+](CC)(CC)CC [Tetraethylammonium chloride] | 0.207
CC1(CN2CCC(n3c(=O)[nH]c4ccccc43)CC2)OCc2ccccc2-n2cccc21 (configuration not stated) | 0.106
Cc1cccc(-c2[nH]c(C(C)(C)C)nc2-c2ccc3nccnc3c2)n1 | 0.0313
Cc1ccccc1/C=C/C1=NCCN1 [Metrazoline oxalate] | -0.0733
O=c1[nH]cc(F)c(=O)[nH]1 [5-Fluorouracil] | -0.312
O=c1[nH]cc(F)c(=O)[nH]1 [Adrucil (Fluorouracil)] | 0.0313
CC(C)Cc1ccc([C@H](C)C(=O)O)cc1 [S(+)-Ibuprofen] | 0.18
N=c1ccn2c(n1)O[C@H]1[C@H](O)[C@@H](CO)O[C@H]12 [Ancitabine hydrochloride] | 6.23
C[N+](C)(C)CCO.[Br-] [Choline bromide] | 0.109
O=C(O)Cc1ccccc1Nc1c(Cl)cccc1Cl [Diclofenac sodium] | -0.0063
O=c1c(-c2ccc(O)cc2)coc2cc(O)cc(O)c12 [Genistein] | 0.271
C[C@H](NC(=O)Cc1cc(F)cc(F)c1)C(=O)N[C@@H]1C(=O)N(C)c2ccccc2-c2ccccc21 | -0.0592
COC(=O)[C@H]1[C@H]2C[C@@H]3c4[nH]c5cc(OC)ccc5c4CCN3C[C@H]2C[C@@H](OC(=O)c2cc(OC)c(OC)c(OC)c2)[C@@H]1OC [Reserpine] | -0.138
O=C(O)CN(CCOCCOCCN(CC(=O)O)CC(=O)O)CC(=O)O | 0.0661
CNC(=C[N+](=O)[O-])NCCSCc1ccc(CN(C)C)o1 [Ranitidine hydrochloride] | 0.133

SMILES | S-phase gammaH2AX median (Z-score)
CC(C)C[C@H](NC(=O)[C@@H](O)[C@H](N)Cc1ccccc1)C(=O)O [Bestatin hydrochloride] | 0.0136
CC(C)C[C@H](NC(=O)[C@@H](O)[C@H](N)Cc1ccccc1)C(=O)O [Ubenimex (Bestatin)] | -0.0367
O=C(O[C@@H]1Cc2c(O)cc(O)cc2O[C@@H]1c1cc(O)c(O)c(O)c1)c1cc(O)c(O)c(O)c1 [(-)-Epigallocatechin gallate] | -0.0452
CC(C)C[C@H](NC(=O)CNC(=O)c1cc(Cl)ccc1Cl)B(O)O | -0.149
CC(=O)NNC(=O)N1Cc2ccccc2Oc2ccc(Cl)cc21 | -0.0334
CNC[C@H](O)c1cccc(O)c1 [Phenylephrine hydrochloride] | 0.0142
CCOc1ccn(-c2ccc(F)cc2)c(=O)c1C(=O)Nc1ccc(Oc2ccnc(N)c2Cl)c(F)c1 | -0.00425
[Cl-].[Li+] [Lithium Chloride] | 0.0126
CCCCCCN(CCCCCC)C(=O)Cc1c(-c2ccc(F)cc2)[nH]c2ccccc12 [N,N-Dihexyl-2-(4-fluorophenyl)indole-3-acetamide] | 0.0882
CCN(CC)CCNC(=O)c1ccc(NC(C)=O)cc1 [N-Acetylprocainamide hydrochloride] | 0.0874
CO[C@H]1C[C@@H]2CC[C@@H](C)[C@@](O)(O2)C(=O)C(=O)N2CCCC[C@H]2C(=O)O[C@H]([C@H](C)C[C@@H]2CC[C@@H](O)[C@H](OC)C2)CC(=O)[C@H](C)/C=C(\C)[C@@H](O)[C@@H](OC)C(=O)[C@H](C)C[C@H](C)/C=C/C=C/C=C/1C [Rapamycin (Sirolimus)] | -0.0885
Oc1ccc(Nc2nc(-c3ccc(Cl)cc3)cs2)cc1 | -0.0367
CNc1cc(NS(=O)(=O)c2ccc(N)cc2)nc(NC)n1 [Ro 04-6790 dihydrochloride] | 0.254
Nc1ncnc2c1ncn2C1OC(C(=O)NC2CC2)C(O)C1O (configuration not stated) [5'-(N-Cyclopropyl)carboxamidoadenosine] | 0.0524
CC(=O)N1CCN(c2ccc(OCC3COC(Cn4ccnc4)(c4ccc(Cl)cc4Cl)O3)cc2)CC1 (configuration not stated) [Ketoconazole] | -0.0661
CC1=C(C)C(=O)C(CCCCC#CCCCC#CCO)=C(C)C1=O | 0.0466
CC(C)NCC(O)c1ccc(NS(C)(=O)=O)cc1 (configuration not stated) [(?)-Sotalol hydrochloride] | 0.1
CC(N)(C(=O)O)c1ccc(C(=O)O)cc1 (stereo not drawn) [(?)-alpha-Methyl-4-carboxyphenylglycine] | 0.116
CC#CCOC(=O)c1c(C)nc2sc3c(c2c1N)CCC(O)C3 (configuration not stated) | -0.0467
C[C@@H]1O[C@@H]1P(=O)(O)O [Phosphomycin disodium] | -0.0473
Cn1c(=O)c2[nH]c(-c3ccc(S(=O)(=O)O)cc3)nc2n(C)c1=O [8-(p-Sulfophenyl)theophylline] | -0.0641
C[C@]12C=CC(=O)C=C1CC[C@@H]1C2=CC[C@]2(C)[C@@H](C(=O)CN3CCN(c4cc(N5CCCC5)nc(N5CCCC5)n4)CC3)CC[C@@H]12 | 0.0868
O=C(O)C1=CCNCC1 [Isoguvacine hydrochloride] | 0.148
CCC1=C[C@@H]2CN(C1)Cc1c([nH]c3ccccc13)[C@@](C(=O)OC)(c1cc3c(cc1OC)N(C)[C@H]1[C@@](O)(C(=O)OC)[C@H](OC(C)=O)[C@]4(CC)C=CCN5CC[C@]31[C@@H]54)C2 [Vinorelbine (Navelbine)] | -0.0321

3 entries from above in a different format:

| SMILES | S-phase gammaH2AX median (Z-score) |
| --- | --- |
| CC(C)C[C@H](NC(=O)[C@@H](O)[C@H](N)Cc1ccccc1)C(=O)O [Bestatin hydrochloride] | 0.0136 |
| CC(C)C[C@H](NC(=O)[C@@H](O)[C@H](N)Cc1ccccc1)C(=O)O [Ubenimex (Bestatin)] | -0.0367 |
| O=C(O[C@@H]1Cc2c(O)cc(O)cc2O[C@@H]1c1cc(O)c(O)c(O)c1)c1cc(O)c(O)c(O)c1 [(-)-Epigallocatechin gallate] | -0.0452 |

Next records follow:

SMILES | S-phase gammaH2AX median (Z-score)
CCn1cc(C(=O)O)c(=O)c2cc(F)c(N3CCNC(C)C3)c(F)c21 (configuration not stated) [Lomefloxacin hydrochloride] | -0.189
NC(=O)c1cc[n+](CC2=C(C(=O)O)N3C(=O)[C@@H](NC(=O)C(c4ccccc4)S(=O)(=O)[O-])[C@H]3SC2)cc1 (some centres not stated) [Cefsulodin sodium salt hydrate] | 0.0796
CS(=O)(=O)Nc1ccc([N+](=O)[O-])cc1Oc1ccccc1 [Nimesulide] | 0.00473
CCc1c2c(nc3ccc(OC(=O)N4CCC(N5CCCCC5)CC4)cc13)-c1cc3c(c(=O)n1C2)COC(=O)[C@]3(O)CC [Irinotecan HCl Trihydrate (Campto)] | 2.68
CNCCC=C1c2ccccc2CCc2ccccc21 [Nortriptyline hydrochloride] | -0.0851
O=c1onc2n1-c1cc(Br)ccc1OC2 | -0.0473
CCC[C@H](NC(=O)/C(C#N)=C/c1cccc(Br)n1)c1ccccc1 | 2.99
Cc1ccc(/C(=C\CN2CCCC2)c2ccccn2)cc1 [Triprolidine hydrochloride] | 0.22
NC(=O)c1ncn([C@@H]2O[C@H](CO)[C@@H](O)[C@H]2O)c1O [Mizoribine] | 0.102
Nc1ncnc2c1ncn2[C@@H]1O[C@H](COP(=O)(O)CP(=O)(O)OP(=O)(O)O)[C@H](O)C1O (stereo partly drawn) [alpha,beta-Methylene adenosine 5'-triphosphate dilithium] | -0.026
CCOc1cc2ncc(C#N)c(Nc3ccc(OCc4ccccn4)c(Cl)c3)c2cc1NC(=O)/C=C/CN(C)C [Neratinib (HKI-272)] | -0.0885
N#CC(c1ccnc(NCCc2cccnc2)n1)c1nc2ccccc2s1 (configuration not stated) [JNK Inhibitor V] | -0.0375
CN(N=O)C(=O)N[C@@H](C=O)[C@@H](O)[C@H](O)[C@H](O)CO [Streptozotocin (Zanosar)] | 0.0259
Cn1cc(C2=C(c3ccc(Cl)cc3Cl)C(=O)NC2=O)c2ccccc21 | 0.09232 ± 0.00011
Cc1ccc(C(=O)Nc2ccc(S(=O)(=O)O)c3cc(S(=O)(=O)O)cc(S(=O)(=O)O)c23)cc1NC(=O)c1cccc(NC(=O)Nc2cccc(C(=O)Nc3cc(C(=O)Nc4ccc(S(=O)(=O)O)c5cc(S(=O)(=O)O)cc(S(=O)(=O)O)c45)ccc3C)c2)c1 [Suramin hexasodium] | -0.327
CNCC[C@H](Oc1ccc(C(F)(F)F)cc1)c1ccccc1 [S-(+)-Fluoxetine hydrochloride] | -0.239
CC(=O)OCC(=O)[C@@]1(O)CC[C@H]2[C@@H]3CCC4=CC(=O)CC[C@]4(C)[C@H]3C(=O)C[C@@]21C [Cortisone 21-acetate] | -0.0194
Cn1cc(C(=O)OCC2CCN(CCNS(C)(=O)=O)CC2)c2ccccc21 | -0.0447
O=C1c2c(O)cc(O)cc2OC(c2ccc(O)c(O)c2)C1O (configuration not stated) [(?)-Taxifolin] | -0.214
O=C1c2ccccc2C(=O)c2c(NCCc3ccc(O)cc3)ccc(NCCc3ccc(O)cc3)c21 | 0.136
Cc1nc(N=Nc2ccc(C(=O)O)cc2)c(COP(=O)(O)O)c(C=O)c1O | 0.0426
C[C@H]1C[C@H]2[C@@H]3CCC4=CC(=O)C=C[C@]4(C)[C@@]3(Cl)[C@@H](O)C[C@]2(C)[C@@]1(O)C(=O)CO [Beclomethasone] | -0.068
COc1cc2nc(N3CCN(C(=O)C4CCCO4)CC3)nc(N)c2cc1OC (configuration not stated) [Terazosin hydrochloride] | 0.04
Oc1ccc(O)cc1 [Hydroquinone] | -0.523
